# Laboratory results: PubChem BioAssay AID652272 (Drosophila RNAi Screening Center, 2013)
# Aim: 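Genes whose knock-down decreases or increases Hedgehog reporter output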 (primary screen)
# System: Drosophila clone 8 (Cl8) cells
# Reagent: long dsRNA against Drosophila genes
# Measurement: 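Firefly light from a Hedgehog-responsive ptc promoter reporter and Renilla reference light, both read on a plate reader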
# Direction: firefly Hh reporter signal: higher = more ptc reporter light; Renilla reference signal: higher = more Renilla control light
# Call rule: 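Hit when the z-score averaged over two replicates is under -2 or over +3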
# Calls: active = hit: reporter lowered or raised; inactive = not a hit
# The screen tested about 21,000 reagents; this is an unselected part of those with a known target gene and a result. Over the whole deposit, 503 (2.4%) got an active call. 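Raw plate light values, not normalised; calls rest on replicate z-scores that were not deposited; hits include reporter decreases as well as increases.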 Names joined by + are all predicted targets of the reagent. The record does not give: the amount of reagent, the time to read-out.
Gene,dsRNA,"firefly Hh reporter signal, replicate 1","firefly Hh reporter signal, replicate 2","firefly Hh reporter signal, replicate 3","Renilla reference signal, replicate 1","Renilla reference signal, replicate 2",outcome
Sam-S (GeneID 48552),DRSC00758,1.21e5,64920,,4999,3072,inactive
ATP6 (retired record) (GeneID 192467),DRSC21278,73872,2.63e5,,1529,10987,inactive
Pcl (GeneID 37069),DRSC07503,1.67e5,94256,,6545,4122,inactive
Efhc1.2 (GeneID 37284),DRSC06027,72084,62685,,2993,2796,inactive
CG30020 (GeneID 36156),DRSC06252,4.91e5,67520,,3962,3962,inactive
CG30020 (GeneID 36156),DRSC06730,1.03e5,42312,,2376,336,inactive
Egfr (GeneID 37455),DRSC03871,1.33e5,2.64e5,,3920,12801,inactive
Egfr (GeneID 37455),DRSC04613,1.26e5,52368,,4768,2452,inactive
papi (GeneID 33401),DRSC00693,91926,60278,,3569,2391,inactive
CG9192 (GeneID 38134),DRSC08639,53349,48296,,1556,3062,inactive
Phb1 (GeneID 49168),DRSC03563,61845,78506,,2586,3513,inactive
CG2871 (GeneID 31411),DRSC18230,1.15e5,8.14e5,3.15e5,3094,5874,inactive
CG1146 (GeneID 38313),DRSC08189,88794,69378,,4210,2930,inactive
SmD1 (GeneID 44668),DRSC09800,43533,32432,68952,3680,4900,inactive
Rip11 (GeneID 32850),DRSC20000,1.18e5,53702,,2757,1132,inactive
Vinc (GeneID 31201),DRSC18728,1.58e5,75421,,3120,2919,inactive
mi (GeneID 37723),DRSC04498,29993,20546,,1736,1319,active
gsb (GeneID 38005),DRSC04692,78361,69523,,1555,5457,inactive
Clk (GeneID 38872),DRSC11117,52032,51840,,5813,3463,inactive
babos (GeneID 37557),DRSC03923,1.05e5,2.50e5,,2503,10617,inactive
babos (GeneID 37557),DRSC04397,1.10e5,88821,,4905,3712,inactive
CG17019 (GeneID 36425),DRSC06642,70285,52521,,2744,1824,inactive
w-cup (GeneID 34455),DRSC03048,1.36e5,56646,,3425,3480,inactive
Shawn + Tyler,DRSC19564,1.08e5,1.13e5,,2088,3048,inactive
Shawn + Tyler,DRSC19565,89088,2.63e5,,2948,10800,inactive
CG32727 (GeneID 318176),DRSC17519,3.30e5,1.12e5,,17568,2128,inactive
CG9806 (GeneID 31994),DRSC18444,57747,1.89e5,,2013,8135,inactive
CG31688 (GeneID 35314),DRSC02117,57508,31597,,1883,3060,inactive
CG31688 (GeneID 35314),DRSC02682,65760,38853,,2224,4354,inactive
tgy (GeneID 32896),DRSC20045,51552,2.35e5,,1411,8841,inactive
dpa (GeneID 35679),DRSC07604,79314,48777,,1888,4346,inactive
GstE11 (GeneID 37128),DRSC06926,1.24e5,81872,,5194,3821,inactive
Idh3a (GeneID 32940),DRSC19446,96893,1.78e5,,3712,7016,inactive

Part of the list above, reformatted.
{"Gene": "CG1146 (GeneID 38313)", "dsRNA": "DRSC08189", "firefly Hh reporter signal, replicate 1": 88794, "firefly Hh reporter signal, replicate 2": 69378, "Renilla reference signal, replicate 1": 4210, "Renilla reference signal, replicate 2": 2930, "outcome": "inactive"}
{"Gene": "SmD1 (GeneID 44668)", "dsRNA": "DRSC09800", "firefly Hh reporter signal, replicate 1": 43533, "firefly Hh reporter signal, replicate 2": 32432, "firefly Hh reporter signal, replicate 3": 68952, "Renilla reference signal, replicate 1": 3680, "Renilla reference signal, replicate 2": 4900, "outcome": "inactive"}
{"Gene": "Rip11 (GeneID 32850)", "dsRNA": "DRSC20000", "firefly Hh reporter signal, replicate 1": 1.18e5, "firefly Hh reporter signal, replicate 2": 53702, "Renilla reference signal, replicate 1": 2757, "Renilla reference signal, replicate 2": 1132, "outcome": "inactive"}
{"Gene": "Vinc (GeneID 31201)", "dsRNA": "DRSC18728", "firefly Hh reporter signal, replicate 1": 1.58e5, "firefly Hh reporter signal, replicate 2": 75421, "Renilla reference signal, replicate 1": 3120, "Renilla reference signal, replicate 2": 2919, "outcome": "inactive"}
{"Gene": "mi (GeneID 37723)", "dsRNA": "DRSC04498", "firefly Hh reporter signal, replicate 1": 29993, "firefly Hh reporter signal, replicate 2": 20546, "Renilla reference signal, replicate 1": 1736, "Renilla reference signal, replicate 2": 1319, "outcome": "active"}
{"Gene": "gsb (GeneID 38005)", "dsRNA": "DRSC04692", "firefly Hh reporter signal, replicate 1": 78361, "firefly Hh reporter signal, replicate 2": 69523, "Renilla reference signal, replicate 1": 1555, "Renilla reference signal, replicate 2": 5457, "outcome": "inactive"}
{"Gene": "Clk (GeneID 38872)", "dsRNA": "DRSC11117", "firefly Hh reporter signal, replicate 1": 52032, "firefly Hh reporter signal, replicate 2": 51840, "Renilla reference signal, replicate 1": 5813, "Renilla reference signal, replicate 2": 3463, "outcome": "inactive"}
{"Gene": "babos (GeneID 37557)", "dsRNA": "DRSC03923", "firefly Hh reporter signal, replicate 1": 1.05e5, "firefly Hh reporter signal, replicate 2": 2.50e5, "Renilla reference signal, replicate 1": 2503, "Renilla reference signal, replicate 2": 10617, "outcome": "inactive"}

More records follow:
Gene,dsRNA,"firefly Hh reporter signal, replicate 1","firefly Hh reporter signal, replicate 2","firefly Hh reporter signal, replicate 3","Renilla reference signal, replicate 1","Renilla reference signal, replicate 2",outcome
alpha4GT1 (GeneID 33512),DRSC00488,87079,93849,,4496,4253,inactive
lmgA + lmgB,DRSC03566,95511,44883,,2448,3789,inactive
CG18294 (GeneID 40115),DRSC09891,1.61e5,1.52e5,,6102,3655,inactive
SNF4Agamma (GeneID 42515),DRSC13461,2395,2.29e5,,507,5432,inactive
SNF4Agamma (GeneID 42515),DRSC13463,49152,2.48e5,,10605,5799,inactive
SNF4Agamma (GeneID 42515),DRSC15879,6.76e5,97714,,42668,490,inactive
SNF4Agamma (GeneID 42515),DRSC16847,88491,80055,,3176,2533,inactive
PolA1 (GeneID 42553),DRSC16640,87050,72263,,4016,2807,inactive
CG8369 (GeneID 50005),DRSC16413,76466,76871,,3010,2796,inactive
CG13437 (GeneID 37343),DRSC06397,69376,51808,,2464,3906,inactive
mod(mdg4) (GeneID 49228),DRSC13474,53584,2.16e5,,12084,5344,inactive
mod(mdg4) (GeneID 49228),DRSC13475,46492,2.25e5,,10274,5911,inactive
mod(mdg4) (GeneID 49228),DRSC13478,50016,1.34e5,,10368,3213,inactive
mod(mdg4) (GeneID 49228),DRSC13479,44452,1.86e5,,10068,4392,inactive
mod(mdg4) (GeneID 49228),DRSC15042,7.71e5,2.23e5,,44169,5613,inactive
mod(mdg4) (GeneID 49228),DRSC17000,1.02e5,1.02e5,,4017,4517,inactive
tex (GeneID 40983),DRSC16517,60880,76995,,1882,2313,inactive
CG2617 (GeneID 35331),DRSC02712,75861,49002,,2384,4391,inactive
CG18518 (GeneID 34932),DRSC01509,82416,1.74e5,,2321,8192,inactive
Sik2 (GeneID 31170),DRSC18522,1.24e5,2.43e5,,5063,9409,inactive
CG14275 (GeneID 34144),DRSC02379,1.09e5,86289,,2944,6048,inactive
cyst (GeneID 35237),DRSC02023,76825,55728,,4052,2640,inactive
CG11723 (GeneID 33388),DRSC00324,1.30e5,84656,,5168,2705,inactive
Kyat (GeneID 41433),DRSC16147,51002,1.02e5,,2016,2632,inactive
